According to publication PMC12835413, “Allosteric zinc inhibition and interdomain regulation govern the catalytic mechanism of the E3-independent ubiquitin-conjugating enzyme hUBE2O” (The Journal of Biological Chemistry, 2025):
No constants are given. Whether binding was seen depends on the method and setting. In cells and extracts the contact can be indirect. Some entries that bind do so weakly or less than the wild type. Tags and fused reporters may be left off the sequences shown.

Amino acid sequences for entries named in this document (tags omitted).
UniProt P26231: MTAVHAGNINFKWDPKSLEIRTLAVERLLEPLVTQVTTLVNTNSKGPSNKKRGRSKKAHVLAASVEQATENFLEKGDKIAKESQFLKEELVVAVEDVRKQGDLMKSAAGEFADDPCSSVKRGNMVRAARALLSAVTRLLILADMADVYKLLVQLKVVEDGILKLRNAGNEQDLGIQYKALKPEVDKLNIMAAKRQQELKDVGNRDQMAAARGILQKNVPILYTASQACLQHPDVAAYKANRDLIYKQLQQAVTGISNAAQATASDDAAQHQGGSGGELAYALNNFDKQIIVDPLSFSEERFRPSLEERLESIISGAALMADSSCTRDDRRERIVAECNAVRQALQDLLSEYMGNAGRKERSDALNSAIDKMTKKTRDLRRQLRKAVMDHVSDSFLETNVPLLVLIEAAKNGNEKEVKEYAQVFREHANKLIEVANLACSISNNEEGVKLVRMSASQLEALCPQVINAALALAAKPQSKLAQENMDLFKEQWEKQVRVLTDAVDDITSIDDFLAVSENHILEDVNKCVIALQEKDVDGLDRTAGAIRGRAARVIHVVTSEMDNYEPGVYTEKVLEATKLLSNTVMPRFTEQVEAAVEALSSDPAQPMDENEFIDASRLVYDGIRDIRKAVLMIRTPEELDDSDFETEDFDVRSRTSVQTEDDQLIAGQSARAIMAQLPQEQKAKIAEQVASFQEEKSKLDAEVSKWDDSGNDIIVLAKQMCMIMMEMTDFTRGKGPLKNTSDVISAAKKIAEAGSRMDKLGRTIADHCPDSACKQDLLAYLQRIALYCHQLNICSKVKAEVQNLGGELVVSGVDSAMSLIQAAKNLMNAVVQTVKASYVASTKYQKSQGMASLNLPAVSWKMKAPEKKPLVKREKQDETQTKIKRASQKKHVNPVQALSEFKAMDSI

T1: full-length hUBE2O (FL-hUBE2O), wild type, expressed in transfected cells (human) (UniProt Q9C0C9)
T1 sequence: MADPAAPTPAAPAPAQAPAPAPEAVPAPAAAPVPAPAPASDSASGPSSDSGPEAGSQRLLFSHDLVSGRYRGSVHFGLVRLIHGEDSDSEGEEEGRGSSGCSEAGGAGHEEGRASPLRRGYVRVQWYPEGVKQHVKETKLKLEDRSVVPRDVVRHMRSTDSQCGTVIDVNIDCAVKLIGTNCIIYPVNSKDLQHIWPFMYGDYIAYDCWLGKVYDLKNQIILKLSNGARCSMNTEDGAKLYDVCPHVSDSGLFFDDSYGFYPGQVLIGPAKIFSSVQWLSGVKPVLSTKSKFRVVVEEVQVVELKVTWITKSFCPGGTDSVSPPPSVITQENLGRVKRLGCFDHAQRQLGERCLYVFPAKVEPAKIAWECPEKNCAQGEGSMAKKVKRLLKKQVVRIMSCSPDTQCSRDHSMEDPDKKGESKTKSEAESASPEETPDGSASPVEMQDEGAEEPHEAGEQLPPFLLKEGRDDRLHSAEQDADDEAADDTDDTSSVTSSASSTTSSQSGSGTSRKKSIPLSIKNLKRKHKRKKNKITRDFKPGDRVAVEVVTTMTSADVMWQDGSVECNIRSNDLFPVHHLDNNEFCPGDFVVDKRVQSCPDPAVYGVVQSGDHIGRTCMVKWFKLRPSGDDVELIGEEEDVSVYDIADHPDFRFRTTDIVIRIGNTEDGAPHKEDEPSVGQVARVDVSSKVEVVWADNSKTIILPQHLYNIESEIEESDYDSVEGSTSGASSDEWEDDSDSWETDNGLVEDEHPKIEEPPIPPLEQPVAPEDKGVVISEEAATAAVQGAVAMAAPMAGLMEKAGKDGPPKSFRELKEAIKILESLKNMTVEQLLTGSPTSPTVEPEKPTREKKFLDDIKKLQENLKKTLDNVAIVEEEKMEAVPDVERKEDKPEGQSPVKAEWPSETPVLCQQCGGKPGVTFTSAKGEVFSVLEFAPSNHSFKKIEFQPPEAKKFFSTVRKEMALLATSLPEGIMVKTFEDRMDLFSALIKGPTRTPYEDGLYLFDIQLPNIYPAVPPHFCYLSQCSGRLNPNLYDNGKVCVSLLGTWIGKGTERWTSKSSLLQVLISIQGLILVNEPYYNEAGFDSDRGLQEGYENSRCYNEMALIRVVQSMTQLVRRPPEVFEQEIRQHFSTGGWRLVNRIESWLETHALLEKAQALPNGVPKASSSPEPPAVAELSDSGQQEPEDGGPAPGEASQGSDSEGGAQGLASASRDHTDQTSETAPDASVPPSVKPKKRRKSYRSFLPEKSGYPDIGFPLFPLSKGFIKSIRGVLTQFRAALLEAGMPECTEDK

T2: hUBE2O T995A mutant (human) (UniProt Q9C0C9)
T2 sequence: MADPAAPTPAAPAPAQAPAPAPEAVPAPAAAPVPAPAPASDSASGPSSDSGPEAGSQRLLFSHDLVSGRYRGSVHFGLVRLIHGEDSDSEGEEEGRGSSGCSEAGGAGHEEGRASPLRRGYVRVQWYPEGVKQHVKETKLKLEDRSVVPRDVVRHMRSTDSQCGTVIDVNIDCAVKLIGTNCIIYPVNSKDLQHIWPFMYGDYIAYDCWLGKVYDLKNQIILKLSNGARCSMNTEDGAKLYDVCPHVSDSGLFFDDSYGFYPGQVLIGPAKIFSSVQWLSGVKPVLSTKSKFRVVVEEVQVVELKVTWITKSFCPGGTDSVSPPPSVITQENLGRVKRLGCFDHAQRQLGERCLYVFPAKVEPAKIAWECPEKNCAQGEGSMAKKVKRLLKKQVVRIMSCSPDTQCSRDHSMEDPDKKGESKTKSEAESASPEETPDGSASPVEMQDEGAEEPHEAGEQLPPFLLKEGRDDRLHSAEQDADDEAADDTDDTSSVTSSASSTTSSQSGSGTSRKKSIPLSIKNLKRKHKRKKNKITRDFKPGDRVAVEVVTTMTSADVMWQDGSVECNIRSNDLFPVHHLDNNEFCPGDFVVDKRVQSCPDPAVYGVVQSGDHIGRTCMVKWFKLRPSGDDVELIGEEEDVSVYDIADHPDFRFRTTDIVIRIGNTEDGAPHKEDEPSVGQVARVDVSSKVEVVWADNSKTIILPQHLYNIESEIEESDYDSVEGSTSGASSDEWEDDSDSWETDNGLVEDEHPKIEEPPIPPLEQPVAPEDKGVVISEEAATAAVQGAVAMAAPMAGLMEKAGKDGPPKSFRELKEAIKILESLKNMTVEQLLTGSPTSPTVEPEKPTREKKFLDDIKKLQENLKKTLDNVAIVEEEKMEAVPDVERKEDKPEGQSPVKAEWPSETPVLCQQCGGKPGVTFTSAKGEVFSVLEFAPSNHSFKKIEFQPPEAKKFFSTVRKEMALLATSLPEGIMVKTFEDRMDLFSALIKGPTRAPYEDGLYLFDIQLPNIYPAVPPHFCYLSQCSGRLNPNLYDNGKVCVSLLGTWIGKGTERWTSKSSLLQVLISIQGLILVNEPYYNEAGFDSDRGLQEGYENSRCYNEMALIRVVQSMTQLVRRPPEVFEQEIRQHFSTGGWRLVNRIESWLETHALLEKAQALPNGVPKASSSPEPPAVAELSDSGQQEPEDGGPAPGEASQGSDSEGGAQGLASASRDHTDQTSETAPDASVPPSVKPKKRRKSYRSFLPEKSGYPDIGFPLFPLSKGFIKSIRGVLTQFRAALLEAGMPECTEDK


Assays:
[1] = molecular target: T1, full-length hUBE2O (FL-hUBE2O), wild type, expressed in transfected cells (human); test: co-IP; lysates of transfected cells (0.5% NP40, 150 mM NaCl, 50 mM Tris pH 8.0, 1 mM EDTA, 10% glycerol), anti-Flag M2 affinity gel 90 min at 4 °C, 3 washes, immunoblotting
[2] = molecular target: T2, hUBE2O T995A mutant (human); test: as above

Row | binding [1] | binding [2] | Molecule
1 | binds | binds | CTNNA1 (HA-mCTNNA1) (from UniProt P26231 1-906)
2 | binds | binds | RECQL4 (HA-RECQL4) (protein, UniProt O94761 1-1208) MERLRDVRERLQAWERAFRRQRGRRPSQDDVEAAPEETRALYREYRTLKRTTGQAGGGLRSSESLPAAAEEAPEPRCWGPHLNRAATKSPQSTPGRSRQGSVPDYGQRLKANLKGTLQAGPALGRRPWPLGRASSKASTPKPPGTGPVPSFAEKVSDEPPQLPEPQPRPGRLQHLQASLSQRLGSLDPGWLQRCHSEVPDFLGAPKACRPDLGSEESQLLIPGESAVLGPGAGSQGPEASAFQEVSIRVGSPQPSSSGGEKRRWNEEPWESPAQVQQESSQAGPPSEGAGAVAVEEDPPGEPVQAQPPQPCSSPSNPRYHGLSPSSQARAGKAEGTAPLHIFPRLARHDRGNYVRLNMKQKHYVRGRALRSRLLRKQAWKQKWRKKGECFGGGGATVTTKESCFLNEQFDHWAAQCPRPASEEDTDAVGPEPLVPSPQPVPEVPSLDPTVLPLYSLGPSGQLAETPAEVFQALEQLGHQAFRPGQERAVMRILSGISTLLVLPTGAGKSLCYQLPALLYSRRSPCLTLVVSPLLSLMDDQVSGLPPCLKAACIHSGMTRKQRESVLQKIRAAQVHVLMLTPEALVGAGGLPPAAQLPPVAFACIDEAHCLSQWSHNFRPCYLRVCKVLRERMGVHCFLGLTATATRRTASDVAQHLAVAEEPDLHGPAPVPTNLHLSVSMDRDTDQALLTLLQGKRFQNLDSIIIYCNRREDTERIAALLRTCLHAAWVPGSGGRAPKTTAEAYHAGMCSRERRRVQRAFMQGQLRVVVATVAFGMGLDRPDVRAVLHLGLPPSFESYVQAVGRAGRDGQPAHCHLFLQPQGEDLRELRRHVHADSTDFLAVKRLVQRVFPACTCTCTRPPSEQEGAVGGERPVPKYPPQEAEQLSHQAAPGPRRVCMGHERALPIQLTVQALDMPEEAIETLLCYLELHPHHWLELLATTYTHCRLNCPGGPAQLQALAHRCPPLAVCLAQQLPEDPGQGSSSVEFDMVKLVDSMGWELASVRRALCQLQWDHEPRTGVRRGTGVLVEFSELAFHLRSPGDLTAEEKDQICDFLYGRVQARERQALARLRRTFQAFHSVAFPSCGPCLEQQDEERSTRLKDLLGRYFEEEEGQEPGGMEDAQGPEPGQARLQDWEDQVRCDIRQFLSLRPEEKFSSRAVARIFHGIGSPCYPAQVYGQDRRFWRKYLHLSFHALVGLATEELLQVAR
3 | – | binds | hUBE2O T995A mutant (enzyme, UniProt Q9C0C9 1-1292) MADPAAPTPAAPAPAQAPAPAPEAVPAPAAAPVPAPAPASDSASGPSSDSGPEAGSQRLLFSHDLVSGRYRGSVHFGLVRLIHGEDSDSEGEEEGRGSSGCSEAGGAGHEEGRASPLRRGYVRVQWYPEGVKQHVKETKLKLEDRSVVPRDVVRHMRSTDSQCGTVIDVNIDCAVKLIGTNCIIYPVNSKDLQHIWPFMYGDYIAYDCWLGKVYDLKNQIILKLSNGARCSMNTEDGAKLYDVCPHVSDSGLFFDDSYGFYPGQVLIGPAKIFSSVQWLSGVKPVLSTKSKFRVVVEEVQVVELKVTWITKSFCPGGTDSVSPPPSVITQENLGRVKRLGCFDHAQRQLGERCLYVFPAKVEPAKIAWECPEKNCAQGEGSMAKKVKRLLKKQVVRIMSCSPDTQCSRDHSMEDPDKKGESKTKSEAESASPEETPDGSASPVEMQDEGAEEPHEAGEQLPPFLLKEGRDDRLHSAEQDADDEAADDTDDTSSVTSSASSTTSSQSGSGTSRKKSIPLSIKNLKRKHKRKKNKITRDFKPGDRVAVEVVTTMTSADVMWQDGSVECNIRSNDLFPVHHLDNNEFCPGDFVVDKRVQSCPDPAVYGVVQSGDHIGRTCMVKWFKLRPSGDDVELIGEEEDVSVYDIADHPDFRFRTTDIVIRIGNTEDGAPHKEDEPSVGQVARVDVSSKVEVVWADNSKTIILPQHLYNIESEIEESDYDSVEGSTSGASSDEWEDDSDSWETDNGLVEDEHPKIEEPPIPPLEQPVAPEDKGVVISEEAATAAVQGAVAMAAPMAGLMEKAGKDGPPKSFRELKEAIKILESLKNMTVEQLLTGSPTSPTVEPEKPTREKKFLDDIKKLQENLKKTLDNVAIVEEEKMEAVPDVERKEDKPEGQSPVKAEWPSETPVLCQQCGGKPGVTFTSAKGEVFSVLEFAPSNHSFKKIEFQPPEAKKFFSTVRKEMALLATSLPEGIMVKTFEDRMDLFSALIKGPTRAPYEDGLYLFDIQLPNIYPAVPPHFCYLSQCSGRLNPNLYDNGKVCVSLLGTWIGKGTERWTSKSSLLQVLISIQGLILVNEPYYNEAGFDSDRGLQEGYENSRCYNEMALIRVVQSMTQLVRRPPEVFEQEIRQHFSTGGWRLVNRIESWLETHALLEKAQALPNGVPKASSSPEPPAVAELSDSGQQEPEDGGPAPGEASQGSDSEGGAQGLASASRDHTDQTSETAPDASVPPSVKPKKRRKSYRSFLPEKSGYPDIGFPLFPLSKGFIKSIRGVLTQFRAALLEAGMPECTEDK
